# The inconclusive results got no clear call from the source; some entries with a clear call stand among them for comparison. Potencies of inconclusive entries are doubtful fits and often do not repeat. Calls of active or inactive are those of the source. Calls follow the shape of the dose curve; as a rule, active = well fitted cell-killing curve with a large enough effect; inconclusive = small, poorly fitted or top-dose-only effect, or effect the other way; inactive = no such curve, though single readings can be large or run the other way. *1 amine or outer side, *2 acyl side, *3 side chain or, on linkers, in order; H or OH if unused. Where a SMILES comes first, the peptide text is derived from it. Bridges are numbered along the chain shown (N, C = ends). Roman numbers before positions name the chains, in order. [ ]: non-standard residue; d: D form. Actinocin(9to1) = Cc1c2oc3c(C)ccc(C(=O)[*:1])c3nc-2c(C(=O)[*:2])c(N)c1=O; NMeV = CN[CH](C(=O)O)C(C)C; Sar = CNCC(=O)O
# Test: Quantitative High-Throughput drug screen in 47 multiple myeloma cell lines against the NCATS MIPE library collection: JJN3_DSMZ cell viability assay (AID 1918966; also: nearly all actives have a fitted effect of over 50% in size)
# Details: JJN3 myeloma cells viability, CellTiter-Glo ATP, 48 h; series mostly up to 45.8 µM; viability, % of DMSO: at the top concentration
# Description: PI: Beverly A. Mock Ph.D.
# Laboratory of Cancer Biology and Genetics,
# Center for Cancer Research, National Cancer Institute,
# National Institute of Health, Bethesda, Maryland
# Drug resistance and disease progression are common in multiple myeloma (MM) patients, underscoring the need for new therapeutic combinations. […] We hypothesized that effective combinations would reduce MYC expression and enhance p16 activity. […] These preclinical data identify potentially useful drug combinations for evaluation in drug-resistant MM and reveal potential mechanisms of combined drug sensitivity.
# Described herein is the primary MIPE qHTS used to cherrypick compounds. Validated compounds were then further tested for potential synergistic activiy.
# [1] Peat TJ, Gaikwad SM, Dubois W, Gyabaah-Kessie N, Zhang S, Gorjifard S, Phyo Z, Andres M, Hughitt VK, Simpson RM, Miller MA, Girvin AT, Taylor A, Williams D, D'Antonio N, Zhang Y, Rajagopalan A, Flietner E, Wilson K, Zhang X, Shinn P, Klumpp-Thomas C, McKnight C, Itkin Z, Chen L, Kazandijian D, Zhang J, Michalowski AM, Simmons JK, Keats J, Thomas CJ, Mock BA. Drug combinations identified by high-throughput screening promote cell cycle transition and upregulate Smad pathways in myeloma. Cancer Lett. 2023 Aug 1;568:216284. doi: 10.1016/j.canlet.2023.216284. Epub 2023 Jun 24. PMID: 37356470; PMCID: PMC10408729.
# SEQUENCE No. (e.g., 1, 2, 3, etc.); […] (e.g., Cells, Incubation, Reagent, etc.); VALUE and DESCRIPTION.
# 1; Cells; 5 uL; white, solid bottom 1536-well Greiner assay plate.
# 2; Compounds; 23 nL; Kalypsis pin tool (Wako USA) equipped with a 1536-well pin head to transfer to the assay plates.
# 3; Incubation; 48 hours; 37C incubation.
# 4; Reagent;5uL; CellTiter Glo (Promega).
# 5; Detector; 425V; Luminescence; Viewlux PerkinElmer.
# NOTES (numbers refer to Sequence numbers above)
# 1. The cell-based screening methods employed in this study were like those previously published. Briefly, the corresponding myeloma cell lines were screened in 1,536-well plates with 500 cells, 5-uL per well for inhibition of cell viability (assessed by measuring ATP levels with CellTiterGlo).
# 2. NCATS MIPE 4.0 library of approved and investigational drugs were added using the Kalypsis pin tool. Wells treated with DMSO only for 100% viability and media only wells for 0% viability were used as controls.
# 3. The assay plates were covered and incubated for 48 hours in a 37C, 5% CO2 incubator with controlled humidity.
# 4. After 48 hours, CellTilter-GloTM luminescent substrate mix (Promega) reagent was added to the assay plate and plates we incubated for 5 min at room temperature.
# 5. Signal was measured as median relative luminescence units on a ViewLux (PerkinElmer) multiplate reader.
# [1] Heske CM, Davis MI, Baumgart JT, Wilson K, Gormally MV, Chen L, Zhang X, Ceribelli M, Duveau DY, Guha R, Ferrer M, Arnaldez FI, Ji J, Tran HL, Zhang Y, Mendoza A, Helman LJ, Thomas CJ. Matrix Screen Identifies Synergistic Combination of PARP Inhibitors and Nicotinamide Phosphoribosyltransferase (NAMPT) Inhibitors in Ewing Sarcoma. Clin Cancer Res. 2017 Dec 1;23(23):7301-7311. doi: 10.1158/1078-0432.CCR-17-1121. Epub 2017 Sep 12. PMID: 28899971; PMCID: PMC6636827.
# Potency is read from the fitted curve at half-maximal effect.
SMILES,Potency,"viability, % of DMSO"
NC1(Cc2ccc(Cl)cc2)CCN(c2ncnc3[nH]ccc23)CC1,active: 13.2 µM,
COc1cc(OC)cc(-c2ccc3ncc4ccc(=O)n(-c5ccc(N6CCNCC6)c(C(F)(F)F)c5)c4c3c2)c1,active: 5.9 µM,
"Cc1c2oc3c(C)ccc(C(=O)NC4C(=O)NC(C(C)C)C(=O)N5CCCC5C(=O)N(C)CC(=O)N(C)C(C(C)C)C(=O)OC4C)c3nc-2c(C(=O)NC2C(=O)NC(C(C)C)C(=O)N3CCCC3C(=O)N(C)CC(=O)N(C)C(C(C)C)C(=O)OC2C)c(N)c1=O (stereo not given) (I: TVP[Sar][NMeV] / II: TVP[Sar][NMeV]; ester I:1-I:C, II:1-II:C; linker I:N-II:N via Actinocin(9to1); configuration not given here)",,inactive: 3.02%
COC(=O)[C@@H]1[C@H]2C[C@@H]3c4[nH]c5ccccc5c4CCN3C[C@@H]2CC[C@@H]1O,"inconclusive: 0.0059 µM [rising, full curve, poor fit]",
COc1cc(CCc2cc(NC(=O)c3ccc(N4C[C@@H](C)N[C@@H](C)C4)cc3)n[nH]2)cc(OC)c1,"inconclusive: 23.5 µM [cytotoxic, partial curve, poor fit]",
C[C@@H]1CN(c2c(F)c(N)c3c(=O)c(C(=O)O)cn(C4CC4)c3c2F)C[C@H](C)N1,"inconclusive: 0.407 µM [cytotoxic, full curve, poor fit]",
CNC(=O)c1c(F)cccc1Nc1nc(Nc2cc3c(cc2OC)CCN3C(=O)CN(C)C)nc2[nH]ccc12,active: 6.62 µM,
CC(C)(C)NC(=O)[C@H]1CN(Cc2cccnc2)CCN1C[C@@H](O)C[C@@H](Cc1ccccc1)C(=O)N[C@H]1c2ccccc2C[C@H]1O,"inconclusive: 33.2 µM [cytotoxic, single point]",
Cc1cc(CN2CCN(c3c(Br)cnc4nc(-c5ccc(N6CCN(C)CC6)cc5)[nH]c34)CC2)no1,active: 10.5 µM,
CO[C@@H]1[C@@H](OC(N)=O)[C@@H](O)[C@H](Oc2ccc3c(O)c(NC(=O)c4ccc(O)c(CC=C(C)C)c4)c(=O)oc3c2C)OC1(C)C,"inconclusive: 11.8 µM [cytotoxic, single point]",
CCCCCCCCCCCCCCCCCCCCCCO,,inactive: 150%
COC(=O)Nc1ccc(-c2nc(N3CCOCC3)c3cnn(C4CCN(Cc5cccnc5)CC4)c3n2)cc1,active: 0.743 µM,
O=C(O)C[C@H](O)C[C@H](O)C=Cc1c(C2CC2)nc2ccccc2c1-c1ccc(F)cc1,"inconclusive: 20.9 µM [cytotoxic, partial curve, poor fit]",
Cc1ccc(CN2CCNCC2)cc1NC(=O)CNc1ccc(F)c(F)c1,,inactive: 95.4%
NNC(=O)c1ccncc1,"inconclusive: 2.96 µM [rising, partial curve, poor fit]",
CC(N)C12CC3CC(CC(C3)C1)C2 (stereo not given),,inactive: 126%
Cc1cc(N2CCOCC2)cc2[nH]c(-c3c(NC[C@@H](O)c4cccc(Cl)c4)cc[nH]c3=O)nc12,active: 1.48 µM,
CN(C)CCc1c[nH]c2ccc(CS(=O)(=O)N3CCCC3)cc12,,inactive: 131%
O=C1CCc2cc(OCCCCc3nnnn3C3CCCCC3)ccc2N1,"inconclusive: 0.0332 µM [rising, full curve, poor fit]",
COC(=O)Nc1nc2ccc(C(=O)c3ccc(F)cc3)cc2[nH]1,active: 2.35 µM,

SMILES,Potency,"viability, % of DMSO"
CC(=O)[C@H]1CC[C@H]2[C@@H]3CCC4=CC(=O)CC[C@]4(C)[C@H]3CC[C@]12C,"inconclusive: 18.7 µM [cytotoxic, partial curve, poor fit]",
CCCNC(=O)[C@H]1O[C@H]1C(=O)N[C@H](C(=O)N1CCC[C@@H]1C(=O)OC)C(C)CC (stereo not given in full),active: 2.96 µM,
Nc1ncnc2c1c(-c1cnc3[nH]ccc3c1)nn2C1CCCC1,active: 2.35 µM,
Cc1nc2ccc(CN(C)c3ccc(C(=O)N[C@@H](CCC(=O)O)C(=O)O)s3)cc2c(=O)[nH]1,"inconclusive: 1.05 µM [cytotoxic, partial curve, poor fit]",
CCOC(=O)[C@H](CCc1ccccc1)N[C@@H](C)C(=O)N1[C@@H](C(=O)O)C[C@H]2CCC[C@@H]21,"inconclusive: 20.9 µM [cytotoxic, partial curve, poor fit]",
CC(C)(O)CC[C@@H](O)[C@](C)(O)[C@H]1CC[C@@]2(O)C3=CC(=O)[C@@H]4C[C@@H](O)[C@@H](O)C[C@]4(C)[C@@H]3CC[C@]12C,,inactive: 80.4%
CNC(=O)c1ccc(Nc2cc(Nc3ccccc3S(=O)(=O)C(C)C)c3cc[nH]c3n2)nc1,active: 16.6 µM,
CN(C)CC[C@H](c1ccc(Cl)cc1)c1ccccn1,,inactive: 83.2%
Cc1cc(Nc2ncnc3ccc(-c4ccc(CNCCS(C)(=O)=O)o4)cc23)ccc1Oc1ccn2ncnc2c1,active: 18.7 µM,
COc1cccc2c1C(=O)c1c(O)c3c(c(O)c1C2=O)C[C@@](O)(C(C)=O)C[C@H]3O[C@H]1C[C@H](N)[C@H](O)[C@H](C)O1,active: 0.105 µM,
COC(=O)C1C2CC3c4[nH]c5cc(OC)ccc5c4CCN3CC2CC(OC(=O)c2cc(OC)c(OC)c(OC)c2)C1OC (stereo not given),"inconclusive: 26.4 µM [cytotoxic, single point]",
CNC(=O)c1ccccc1Sc1ccc2c(C=Cc3ccccn3)n[nH]c2c1,"inconclusive: 20.9 µM [cytotoxic, partial curve, poor fit]",
O=C(O)C1(Cc2cccc(Nc3nccs3)n2)CCC(Oc2cccc(Cl)c2F)CC1 (stereo not given),,inactive: 152%
O=C(C=CC#Cc1cccc(NS(=O)(=O)c2ccccc2)c1)NO,active: 2.35 µM,
N=c1nc(N2CCCCC2)cc(N)n1O,"inconclusive: 0.0017 µM [rising, full curve, poor fit]",
CNC(=O)c1nn(C)c2c1C(C)(C)Cc1cnc(Nc3ccc(N4CCN(C)CC4)cc3)nc1-2,active: 4.69 µM,
O=C1c2c(O)cccc2[C@@H]([C@@H]2O[C@H](CO)[C@@H](O)[C@H](O)[C@H]2O)c2cc(CO)cc(O)c21,inconclusive: 0.001 µM,
COc1cc2c(NC3CCN(C(C)C)CC3)nc(C3CCCCC3)nc2cc1OCCCN1CCCC1,active: 13.2 µM,
O=C(CS(=O)Cc1ccco1)NCC=CCOc1cc(CN2CCCCC2)ccn1 (stereo not given),"inconclusive: 16.6 µM [cytotoxic, partial curve, poor fit]",
CCOC(=O)N1CCC(=C2c3ccc(Cl)cc3CCc3cccnc32)CC1,"inconclusive: 26.4 µM [cytotoxic, partial curve]",

# A few values from the results shown.
# CN(C)CCc1c[nH]c2ccc(CS(=O)(=O)N3CCCC3)cc12 – viability, % of DMSO: inactive: 131%
# O=C1c2c(O)cccc2[C@@H]([C@@H]2O[C@H](CO)[C@@H](O)[C@H](O)[C@H]2O)c2cc(CO)cc(O)c21 – Potency: inconclusive: 0.001 µM

# Reference: PubChem BioAssay (NCATS)
